Results on two substances are retold here after publication PMC7503102.

Protein sequences, listed by entry. Tags and fused reporters are not part of them. Residues count along the entry.
UniProt Q68DV7, residues 24-783: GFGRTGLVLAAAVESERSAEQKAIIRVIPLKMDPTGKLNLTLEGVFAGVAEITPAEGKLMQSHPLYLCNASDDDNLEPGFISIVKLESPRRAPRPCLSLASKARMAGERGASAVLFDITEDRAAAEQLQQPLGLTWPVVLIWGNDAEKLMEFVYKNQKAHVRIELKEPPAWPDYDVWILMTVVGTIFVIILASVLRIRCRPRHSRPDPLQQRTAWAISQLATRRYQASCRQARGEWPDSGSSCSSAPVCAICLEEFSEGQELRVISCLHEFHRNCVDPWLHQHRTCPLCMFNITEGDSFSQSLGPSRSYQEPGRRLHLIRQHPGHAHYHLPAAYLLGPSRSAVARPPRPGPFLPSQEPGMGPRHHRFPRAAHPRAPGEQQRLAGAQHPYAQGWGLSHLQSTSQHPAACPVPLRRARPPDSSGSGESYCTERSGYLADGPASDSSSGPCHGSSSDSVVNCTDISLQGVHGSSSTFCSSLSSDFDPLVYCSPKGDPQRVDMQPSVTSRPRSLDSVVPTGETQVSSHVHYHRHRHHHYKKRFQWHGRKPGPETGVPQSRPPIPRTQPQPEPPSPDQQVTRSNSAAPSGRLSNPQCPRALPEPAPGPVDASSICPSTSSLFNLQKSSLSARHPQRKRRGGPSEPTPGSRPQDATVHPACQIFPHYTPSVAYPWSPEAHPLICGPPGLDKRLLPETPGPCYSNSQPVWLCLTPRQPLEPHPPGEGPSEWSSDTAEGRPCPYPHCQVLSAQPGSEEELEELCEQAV
UniProt O15169: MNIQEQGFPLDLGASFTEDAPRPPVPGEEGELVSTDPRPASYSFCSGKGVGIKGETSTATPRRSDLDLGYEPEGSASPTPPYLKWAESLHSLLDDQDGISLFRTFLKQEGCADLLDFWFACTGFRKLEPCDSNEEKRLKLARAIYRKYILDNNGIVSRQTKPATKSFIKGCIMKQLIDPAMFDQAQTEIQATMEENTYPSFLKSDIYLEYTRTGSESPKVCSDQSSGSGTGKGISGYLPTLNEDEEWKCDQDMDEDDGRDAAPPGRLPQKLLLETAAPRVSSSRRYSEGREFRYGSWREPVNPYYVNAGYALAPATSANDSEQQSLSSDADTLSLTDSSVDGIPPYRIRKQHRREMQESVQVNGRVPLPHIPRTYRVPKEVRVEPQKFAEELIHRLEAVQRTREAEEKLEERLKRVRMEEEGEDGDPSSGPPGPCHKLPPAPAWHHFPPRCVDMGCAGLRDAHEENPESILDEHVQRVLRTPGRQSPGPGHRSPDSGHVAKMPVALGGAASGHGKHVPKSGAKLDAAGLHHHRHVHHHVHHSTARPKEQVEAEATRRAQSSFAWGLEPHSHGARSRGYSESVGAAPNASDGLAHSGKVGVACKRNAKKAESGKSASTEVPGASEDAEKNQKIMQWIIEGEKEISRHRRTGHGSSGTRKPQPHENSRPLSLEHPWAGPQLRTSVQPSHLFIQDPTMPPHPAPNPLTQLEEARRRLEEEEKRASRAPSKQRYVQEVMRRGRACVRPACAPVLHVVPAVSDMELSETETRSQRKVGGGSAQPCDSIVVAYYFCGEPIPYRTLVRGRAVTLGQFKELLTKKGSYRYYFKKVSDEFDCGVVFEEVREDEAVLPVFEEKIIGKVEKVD
UniProt P49674: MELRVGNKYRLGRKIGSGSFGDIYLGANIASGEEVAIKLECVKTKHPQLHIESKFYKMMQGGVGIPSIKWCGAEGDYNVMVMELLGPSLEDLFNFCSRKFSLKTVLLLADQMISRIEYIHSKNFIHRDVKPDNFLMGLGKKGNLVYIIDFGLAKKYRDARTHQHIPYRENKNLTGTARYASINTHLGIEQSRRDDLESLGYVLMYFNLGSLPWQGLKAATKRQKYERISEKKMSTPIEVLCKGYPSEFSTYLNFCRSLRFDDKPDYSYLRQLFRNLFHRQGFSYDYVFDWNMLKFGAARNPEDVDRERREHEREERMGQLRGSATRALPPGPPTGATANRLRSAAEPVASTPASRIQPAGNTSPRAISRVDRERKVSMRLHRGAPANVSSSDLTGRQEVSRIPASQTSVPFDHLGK

Results are given in words; binding and its absence hold for the method and conditions named. In cells and extracts the contact can be indirect. These calls come from enrichment with a bait or labelling near it, and not all partners need be listed.

In the experiment the target is RNF43-BirA*-HA (human) (UniProt Q68DV7). The experiment in a line: proximity labelling; BioID: T-REx-293 cells stably expressing inducible RNF43-BirA*-HA, treated o/n with tetracycline and biotin; streptavidin pull-down, LC-MS/MS; non-induced cells as negative control.

“Axin1 (endogenous) (from UniProt O15169 1-862)”: the binding result is recorded as “binds”. As for “Casein kinase 1 epsilon (endogenous) (from UniProt P49674 1-416) (enzyme)”, the binding entry is “binds”.
